Data from publication doi:10.1101/2020.01.16.909523 (bioRxiv, 2020).
No constants are given. Whether binding was seen depends on the method and setting. Binding seen in cells or lysates may run through a third protein. Some entries that bind do so weakly or less than the wild type. Sequences can lack the tags named with a protein.

Target: PE5mt-PPE4mt heterodimer (His6 tag on PE5mt) (Mycobacterium tuberculosis) (UniProt L7N695)
Test: pull-down

Molecule	binding
EspG3mt (from UniProt P9WJC7 1-295)	binds
EspG3 from Mycolicibacterium smegmatis (protein, UniProt A0QQ45) MGPNAVELTTDQAWCLADVLGAGSYPWVLAITPPYSDHSQRSAFLAAQSAELTRMGVVNSAGAVDPRVAQWITTVCRATQWLDLRFVSGPGDLLRGMVARRSEETVVALRNAQLVTFTAMDIGHQHALVPVLTAGLSGRKPARFDDFALPAAAGARADEQIRNGAPLAEVLEFLGVPPSARPLVESVFDGRRTYVEIVAGEHRDGHRVTTEVGVSIIDTPHGRILVHPTKAFDGEWISTFTPGSADAIAMAVERLTASLPSGSWFPDQPLTRDFDEDAATHREPVLQRRTQKA	binds
